From article PMC3225811
Results are given in words; binding and its absence hold for the method and conditions named. Binding seen in cells or lysates may run through a third protein. Some binding calls cover weakened binding; strength is not graded here.

Chains of the proteins cited; added tags and fusions are not shown.
UniProt Q61656: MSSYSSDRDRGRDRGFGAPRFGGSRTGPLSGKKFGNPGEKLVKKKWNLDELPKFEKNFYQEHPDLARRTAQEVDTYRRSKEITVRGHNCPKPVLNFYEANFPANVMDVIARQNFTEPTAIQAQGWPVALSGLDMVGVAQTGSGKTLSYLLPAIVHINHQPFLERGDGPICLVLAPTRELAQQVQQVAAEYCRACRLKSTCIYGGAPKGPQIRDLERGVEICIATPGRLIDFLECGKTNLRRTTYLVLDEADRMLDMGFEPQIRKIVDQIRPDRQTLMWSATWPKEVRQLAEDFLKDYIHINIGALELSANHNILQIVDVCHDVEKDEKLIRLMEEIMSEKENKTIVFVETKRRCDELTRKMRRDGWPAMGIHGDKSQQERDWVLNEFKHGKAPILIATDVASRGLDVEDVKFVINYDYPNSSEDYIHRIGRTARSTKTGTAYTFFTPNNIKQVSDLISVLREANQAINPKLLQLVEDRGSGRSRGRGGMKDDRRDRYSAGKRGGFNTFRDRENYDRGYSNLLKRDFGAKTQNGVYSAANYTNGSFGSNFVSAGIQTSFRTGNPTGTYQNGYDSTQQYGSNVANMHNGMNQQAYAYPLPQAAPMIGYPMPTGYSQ
UniProt Q501J6: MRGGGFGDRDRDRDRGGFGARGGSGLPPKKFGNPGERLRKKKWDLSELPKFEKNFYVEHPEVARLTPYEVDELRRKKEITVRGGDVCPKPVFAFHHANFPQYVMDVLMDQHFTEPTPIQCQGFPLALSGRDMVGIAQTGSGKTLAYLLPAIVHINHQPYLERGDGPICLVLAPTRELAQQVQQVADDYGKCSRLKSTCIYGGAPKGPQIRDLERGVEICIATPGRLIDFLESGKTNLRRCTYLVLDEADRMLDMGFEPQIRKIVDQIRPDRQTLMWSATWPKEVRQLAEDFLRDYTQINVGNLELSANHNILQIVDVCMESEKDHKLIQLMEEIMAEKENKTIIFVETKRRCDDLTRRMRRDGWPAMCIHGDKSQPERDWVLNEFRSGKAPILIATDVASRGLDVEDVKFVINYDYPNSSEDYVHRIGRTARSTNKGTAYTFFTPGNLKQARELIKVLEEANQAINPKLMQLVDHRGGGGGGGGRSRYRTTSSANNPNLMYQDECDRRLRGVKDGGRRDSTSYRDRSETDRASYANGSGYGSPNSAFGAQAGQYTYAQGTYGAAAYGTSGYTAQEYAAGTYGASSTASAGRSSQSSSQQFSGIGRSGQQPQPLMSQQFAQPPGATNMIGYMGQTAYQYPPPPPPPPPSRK
UniProt O70133: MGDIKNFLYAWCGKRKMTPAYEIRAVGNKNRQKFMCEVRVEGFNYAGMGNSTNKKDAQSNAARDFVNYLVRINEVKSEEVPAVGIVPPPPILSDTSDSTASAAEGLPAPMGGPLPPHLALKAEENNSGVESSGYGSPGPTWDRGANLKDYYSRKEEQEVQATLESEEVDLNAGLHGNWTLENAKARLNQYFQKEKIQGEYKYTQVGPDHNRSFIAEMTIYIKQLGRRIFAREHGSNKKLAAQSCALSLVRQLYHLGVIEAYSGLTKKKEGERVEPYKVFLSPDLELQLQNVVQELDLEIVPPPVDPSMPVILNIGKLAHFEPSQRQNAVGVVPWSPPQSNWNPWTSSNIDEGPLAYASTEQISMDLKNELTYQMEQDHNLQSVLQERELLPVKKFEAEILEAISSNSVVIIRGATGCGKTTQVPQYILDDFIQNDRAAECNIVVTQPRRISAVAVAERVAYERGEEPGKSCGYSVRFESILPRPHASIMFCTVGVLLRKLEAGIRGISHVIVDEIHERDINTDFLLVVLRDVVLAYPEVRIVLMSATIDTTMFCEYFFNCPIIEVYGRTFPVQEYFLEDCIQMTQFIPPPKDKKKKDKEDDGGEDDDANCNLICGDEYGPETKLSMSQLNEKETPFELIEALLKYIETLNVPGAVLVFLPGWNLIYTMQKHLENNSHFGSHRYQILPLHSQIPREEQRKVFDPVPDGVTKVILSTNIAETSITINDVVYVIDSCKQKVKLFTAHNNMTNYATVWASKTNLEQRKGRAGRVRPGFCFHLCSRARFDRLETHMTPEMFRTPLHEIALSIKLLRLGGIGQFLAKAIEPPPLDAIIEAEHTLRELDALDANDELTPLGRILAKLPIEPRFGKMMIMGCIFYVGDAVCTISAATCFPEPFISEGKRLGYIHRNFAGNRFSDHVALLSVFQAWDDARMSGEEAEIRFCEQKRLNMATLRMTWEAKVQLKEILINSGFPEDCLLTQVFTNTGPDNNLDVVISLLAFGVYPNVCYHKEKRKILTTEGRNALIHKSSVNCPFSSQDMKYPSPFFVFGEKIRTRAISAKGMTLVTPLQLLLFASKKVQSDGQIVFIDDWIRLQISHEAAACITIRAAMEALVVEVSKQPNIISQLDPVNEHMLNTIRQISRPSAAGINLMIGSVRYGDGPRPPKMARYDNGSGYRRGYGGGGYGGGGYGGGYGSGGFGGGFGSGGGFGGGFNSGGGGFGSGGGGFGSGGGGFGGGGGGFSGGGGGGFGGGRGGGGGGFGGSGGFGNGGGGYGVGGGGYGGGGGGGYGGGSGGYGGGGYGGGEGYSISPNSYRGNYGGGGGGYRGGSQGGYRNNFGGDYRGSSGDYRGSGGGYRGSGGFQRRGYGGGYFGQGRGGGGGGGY

Columns and labels:
[1] = molecular target: p68 (Ddx5), endogenous in mouse liver (mouse (endogenous in liver)) (UniProt Q61656); experiment: co-IP; endogenous proteins; mouse liver lysate in buffer B, incubated with RNase A; 2 mg lysate with 3 ug p68 or p72 antibody and protein G sepharose; immunoblot for Dhx9
[2] = molecular target: p72 (Ddx17), endogenous in mouse liver (mouse (endogenous in liver)) (UniProt Q501J6); experiment: as above

RNA helicase A (Dhx9), endogenous in mouse liver (from UniProt O70133 1-1380)
binding [1]: binds | binding [2]: binds
